Experimental data from PubChem BioAssay AID2685 (National Center for Advancing Translational Sciences (NCATS), 2010).
Among all 320,000 compounds or so, about 2,100 (0.66%) were called active. Inconclusive results, whose numbers are uncertain, are shown with a selection of clear calls. Calls come from the whole dose curve; as a rule, active = well fitted inhibition curve with a large enough effect in the signal ratio, with a control signal flat (not every such curve was filed as active); inconclusive = small, poorly fitted or top-dose-only effect, or effect the other way, or a change in a side signal; inactive = flat fitted curve, though single readings scatter; the % refers to the signal ratio. Potencies of inconclusive entries are doubtful fits and often do not repeat.

Test: qHTS Assay for Lipid Storage Modulators in Drosophila S3 Cells
Details: BODIPY lipid droplet fluorescence, 18-24 h, cells fed with added oleic acid; lipid storage change, negative = inhibition: at 46.1 µM (top of the series) unless noted
Outline: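 Drosophila S3 cells loaded with oleic acid (400 uM, as added) and compounds at several concentrations; lipid droplets imaged by 488-nm laser-scanning cytometry, 500–530 nm intensity and object ratio to cell channel. Percent activity normalized to 20 uM Triacsin C.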
% is set by controls: 0 for no effect and ±100 for the full control effect; potency is the fitted concentration of half-maximal effect.

| Compound | lipid storage change, negative = inhibition | Potency |
| --- | --- | --- |
| COC(=O)c1ccc(CSc2nnc(C)n2N)o1 | inconclusive: 111% |  |
| Cc1sc2nc(SCC(=O)NCCOCCO)n(C)c(=O)c2c1C |  | inconclusive: 0.13 µM [activator, full curve, poor fit] |
| Cc1csc(NC(=O)CSc2nc3ccccc3c3c2CCCC3)n1 | inactive |  |
| Cc1nc(SCC(=O)N2CCOCC2)c2c(C)c(C)sc2n1 |  | inconclusive: 29.1 µM [activator, single point] |
| CCOc1ccccc1CNC(=O)CCc1cn(C)c2ccccc12 | inconclusive: -0.744% |  |
| O=C(CCN1C(=O)c2ccccc2S1(=O)=O)NCc1ccccc1Cl |  | inconclusive: 20.6 µM [cytotoxic, single point] |
| O=C(NCC1(N2CCCCC2)CCCCC1)c1ccc(S(=O)(=O)N2CCCC2)cc1 |  | inconclusive: 29.1 µM [activator, single point] |
| CCn1cc(/C=C2\SC(=O)N(CC(=O)Nc3ccc4c(c3)OCO4)C2=O)c2ccccc21 | inconclusive: 1.08% |  |
| CN1CCCC(OC(=O)c2cccc(Br)c2)C1 (centres undefined) | inconclusive: -7.88% |  |
| O=C(CCSc1nc(-c2ccc3c(c2)OCO3)cc(C(F)(F)F)n1)NCc1ccccc1 | inactive |  |
| CC(=O)Nc1ccc(S(=O)(=O)Nc2ccc(S(=O)(=O)Nc3nc(C)cc(C)n3)cc2)cc1 | inconclusive: 44.9% |  |
| COc1ccc(C2=NOC(Cn3nc(C(=O)O)cc3-c3ccccc3)C2)cc1 (centres undefined) | inconclusive: -20.9% |  |
| CC(C)C(OC(=O)CCC(=O)Nc1nccs1)C(=O)NC1CCCCC1 (centres undefined) | inactive |  |
| CCCC(=O)NC(Nc1ccc(S(=O)(=O)Nc2ncccn2)cc1)(C(=O)OCC)C(F)(F)F (centres undefined) | inconclusive: 31.1% |  |
| CCn1cc(/C=C(\NC(=O)c2ccc(C)cc2)C(=O)NCCN2CCOCC2)c2ccccc21 | inconclusive: -12.9% |  |
| O=C(O)c1cn(Cc2ccccc2)c2ccccc2c1=O | inconclusive: 11.8% |  |
| CC(=O)Nc1ccc(NC(=O)C(C)OC(=O)/C=C/c2ccc3c(c2)OCO3)cc1 (centres undefined) |  | inconclusive: 20.6 µM [activator, partial curve, poor fit] |
| COc1ccc2c(c1OC)C(=O)OC2Nc1nc(-c2ccc([N+](=O)[O-])cc2)cs1 (centres undefined) | inconclusive: -3.73% |  |
| COc1ccc(Nc2nc(N)nc(CSc3nccc(C)n3)n2)cc1 |  | inconclusive: 5.8 µM [activator, full curve] |
| O=C(Cc1ccccc1Cl)Nc1ccc(S(=O)(=O)N2CCOCC2)cc1 |  | inconclusive: 1.64 µM [falling, partial curve] |
| CC(=O)Cc1nsc(Nc2ccc(F)cc2)n1 | inconclusive: -7.64% |  |
| CCSc1ncc(Cl)c(C(=O)Nc2cc(C)ccc2C)n1 | inconclusive: 7.13% |  |
| O=C(CCn1cnc2ccccc2c1=O)Nc1ccc(S(=O)(=O)N2CCCCC2)cc1 | inconclusive: 7.57% |  |
| CCCC(C)c1nnc(NC(=O)CCS(=O)(=O)Cc2ccccc2)s1 (centres undefined) |  | inconclusive: 25.9 µM [activator, single point] |
| O=Cc1cc2ccccc2nc1SCc1ccc(Cl)cc1 |  | inconclusive: 6.51 µM [falling, full curve, poor fit] |

Filtered by structure: the compounds so far with a CF3 group (2)

| Compound | lipid storage change, negative = inhibition | Potency |
| --- | --- | --- |
| O=C(CCSc1nc(-c2ccc3c(c2)OCO3)cc(C(F)(F)F)n1)NCc1ccccc1 | inactive |  |
| CCCC(=O)NC(Nc1ccc(S(=O)(=O)Nc2ncccn2)cc1)(C(=O)OCC)C(F)(F)F (centres undefined) | inconclusive: 31.1% |  |

The results go on.

| Compound | lipid storage change, negative = inhibition | Potency |
| --- | --- | --- |
| COc1ccc(S(=O)(=O)N2Cc3ccccc3CC2C(=O)O)cc1OC (centres undefined) |  | inconclusive: 0.82 µM [activator, single point] |
| COc1ccc(N2CCN(C(=O)CC(C)S(=O)(=O)c3ccc4c(c3)NC(=O)CO4)CC2)cc1 (centres undefined) | inconclusive: -148% |  |
| O=C(Cc1c(C(=O)O)[nH]c2ccc(Cl)cc12)Nc1ccc2c(c1)OCCO2 | inconclusive: -6.47% |  |
| Cc1ccc2cc(CN(CCCO)S(=O)(=O)c3ccccc3F)c(=O)[nH]c2c1C | inconclusive: -100% |  |
| CC1=NS(=O)(=O)c2cc(Cl)ccc2N1 | inconclusive: 17.8% |  |
| O=C1CN(S(=O)(=O)c2ccccc2C(F)(F)F)CCN1 | inconclusive: -57.3% |  |
| CC(C)(C)CC(=O)Nc1ccc(Nc2ccccc2)cc1 |  | inconclusive: 6.51 µM [activator, single point] |
| COc1ccc(/C=C(/NC(=O)c2ccco2)C(=O)N2CCCCC2)cc1 | inconclusive: -53.8% |  |
| Cc1nn(C)c(C(=O)N/N=C/c2cc3c(cc2Br)OCO3)c1Br | inconclusive: 7.77% |  |
| O=[N+]([O-])c1cc([N+](=O)[O-])c2cccnc2c1O |  | inconclusive: 29.1 µM [cytotoxic, single point] |
| CN(C)CCCNC(=O)/C(=C\C=C\c1ccccc1)NC(=O)c1ccc([N+](=O)[O-])cc1 |  | inconclusive: 0.461 µM [activator, single point] |
| Cc1cc(-c2n[nH]c(=S)n2/N=C/c2ccc(Br)s2)n[nH]1 |  | inconclusive: 0.0651 µM [activator, full curve] |
| Cc1ccc(CNCC(=O)Nc2ccc(C)cc2Br)cc1 | inconclusive: 48.9% |  |
| COc1ccc(CCNC(=O)C(=O)N2CCCC2)cc1OC |  | inconclusive: 5.8 µM [cytotoxic, full curve] |
| O=C(NCCCNCCCNC(=O)c1ccccn1)c1ccccn1 | inconclusive: -18.7% |  |
| CCc1cc(=O)n2[nH]c(C)c(-c3ccc(OC)cc3)c2n1 | inconclusive: 96% |  |
| Cc1ccc(N(Cc2ccc([N+](=O)[O-])cc2)C(=O)c2ccco2)cc1 | inconclusive: 16.2% |  |
| CCOC(=O)N1CCN(C(=O)CSc2ccc3nnc(-c4ccccn4)n3n2)CC1 | inconclusive: 10.7% |  |
| Cc1ccc(NC(=O)N2CCC(NC(=O)c3cccc(C)c3)CC2)cc1 | inconclusive: 17.1% |  |
| CCCC(=O)Nc1ccc(-c2csc(NNC(C)=O)n2)cc1 | inconclusive: 34.2% |  |
| Cc1ccccc1NC(=O)Cn1nc(-c2ccc(Cl)s2)ccc1=O |  | inconclusive: 29.1 µM [falling, single point] |
| COc1ccc(-n2c(SCC(=O)Nc3ccc(Br)cc3)nc(O)cc2=O)cc1 | inconclusive: 14.7% |  |
| O=[N+]([O-])c1cc([N+](=O)[O-])c2cc3ccccc3nc2c1 |  | active: 3.26 µM |
| NS(=O)(=O)c1ccc(CCNC(=O)CCCNC(=O)c2ccc(Cl)cc2)cc1 | inconclusive: 126% |  |
